In publication PMC12721901:
Numbering of substitutions follows the chain as printed. Names and notes keep the numbering of the source. No constants are given. Whether binding was seen depends on the method and setting. In cells and extracts the contact can be indirect. Some results given as binding are weak or reduced against the parent protein; the word gives no strength. For some assays here: Sequences can lack the tags named with a protein.

The chains behind the UniProt entries cited, without tags or fusion partners.
UniProt Q61188: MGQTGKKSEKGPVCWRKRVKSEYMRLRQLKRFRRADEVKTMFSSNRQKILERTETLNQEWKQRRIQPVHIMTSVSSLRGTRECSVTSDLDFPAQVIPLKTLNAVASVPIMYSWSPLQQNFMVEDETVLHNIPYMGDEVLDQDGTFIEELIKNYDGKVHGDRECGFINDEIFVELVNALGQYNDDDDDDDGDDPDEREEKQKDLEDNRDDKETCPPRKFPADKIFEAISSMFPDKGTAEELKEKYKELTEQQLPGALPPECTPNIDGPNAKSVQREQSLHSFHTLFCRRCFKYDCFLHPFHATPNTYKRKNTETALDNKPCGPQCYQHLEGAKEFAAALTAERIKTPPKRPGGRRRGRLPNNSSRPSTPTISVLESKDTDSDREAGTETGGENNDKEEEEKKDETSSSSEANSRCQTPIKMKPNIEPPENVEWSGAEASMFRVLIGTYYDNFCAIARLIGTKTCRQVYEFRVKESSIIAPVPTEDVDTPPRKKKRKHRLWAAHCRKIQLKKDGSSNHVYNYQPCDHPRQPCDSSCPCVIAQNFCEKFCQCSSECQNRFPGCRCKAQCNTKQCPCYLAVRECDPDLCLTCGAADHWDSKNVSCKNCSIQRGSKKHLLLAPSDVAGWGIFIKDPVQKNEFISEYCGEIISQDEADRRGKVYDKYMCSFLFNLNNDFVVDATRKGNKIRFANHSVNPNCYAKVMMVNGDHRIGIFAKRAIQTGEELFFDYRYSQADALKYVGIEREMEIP
UniProt Q15910: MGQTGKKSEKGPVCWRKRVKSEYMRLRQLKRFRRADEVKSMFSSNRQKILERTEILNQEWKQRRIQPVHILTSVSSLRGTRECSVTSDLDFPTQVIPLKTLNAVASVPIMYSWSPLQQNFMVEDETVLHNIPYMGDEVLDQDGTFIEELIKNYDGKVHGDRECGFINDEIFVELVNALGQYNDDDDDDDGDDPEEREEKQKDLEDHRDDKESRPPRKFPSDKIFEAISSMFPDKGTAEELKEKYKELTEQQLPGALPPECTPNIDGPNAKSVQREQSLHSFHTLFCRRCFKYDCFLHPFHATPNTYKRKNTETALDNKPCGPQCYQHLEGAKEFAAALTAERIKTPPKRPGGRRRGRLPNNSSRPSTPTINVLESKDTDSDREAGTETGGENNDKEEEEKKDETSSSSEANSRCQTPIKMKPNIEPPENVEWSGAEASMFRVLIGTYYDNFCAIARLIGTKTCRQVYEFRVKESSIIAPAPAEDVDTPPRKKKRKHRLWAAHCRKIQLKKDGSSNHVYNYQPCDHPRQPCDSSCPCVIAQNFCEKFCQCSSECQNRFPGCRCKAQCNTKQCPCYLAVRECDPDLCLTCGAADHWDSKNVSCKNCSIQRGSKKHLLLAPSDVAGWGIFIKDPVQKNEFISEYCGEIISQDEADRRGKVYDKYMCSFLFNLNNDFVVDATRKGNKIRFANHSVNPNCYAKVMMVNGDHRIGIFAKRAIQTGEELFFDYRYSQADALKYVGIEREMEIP

Legend:
[1] = target: T1, GST-USP22 (UniProt Q9UPT9); assay: pull-down; recombinant GST or GST-USP22 purified from bacteria, incubated with 4T1 cell lysate overnight; bound proteins by immunoblot; only the target purified
T1 sequence: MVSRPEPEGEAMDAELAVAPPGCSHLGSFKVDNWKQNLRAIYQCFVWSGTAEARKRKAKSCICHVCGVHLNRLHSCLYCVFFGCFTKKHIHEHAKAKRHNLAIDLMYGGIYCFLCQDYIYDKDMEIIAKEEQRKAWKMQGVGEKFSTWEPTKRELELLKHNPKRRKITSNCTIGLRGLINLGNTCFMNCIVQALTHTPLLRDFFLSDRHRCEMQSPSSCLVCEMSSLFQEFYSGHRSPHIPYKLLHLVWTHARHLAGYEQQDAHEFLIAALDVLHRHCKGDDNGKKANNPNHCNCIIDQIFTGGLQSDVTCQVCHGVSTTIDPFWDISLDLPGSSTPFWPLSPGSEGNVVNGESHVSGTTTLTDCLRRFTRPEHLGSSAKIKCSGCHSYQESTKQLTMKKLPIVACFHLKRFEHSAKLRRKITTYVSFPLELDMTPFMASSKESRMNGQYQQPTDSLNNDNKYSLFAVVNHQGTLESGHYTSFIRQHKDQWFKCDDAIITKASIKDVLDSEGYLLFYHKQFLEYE

[2] = target: T2, USP22 (endogenous, mouse tumor cells) (mouse (endogenous in RM1 and MC38)) (UniProt Q5DU02); assay: co-IP; endogenous proteins; anti-EZH2 and, reciprocally, anti-USP22 immunoprecipitates from lysates of RM1 and MC38 cells, immunoblot
T2 sequence: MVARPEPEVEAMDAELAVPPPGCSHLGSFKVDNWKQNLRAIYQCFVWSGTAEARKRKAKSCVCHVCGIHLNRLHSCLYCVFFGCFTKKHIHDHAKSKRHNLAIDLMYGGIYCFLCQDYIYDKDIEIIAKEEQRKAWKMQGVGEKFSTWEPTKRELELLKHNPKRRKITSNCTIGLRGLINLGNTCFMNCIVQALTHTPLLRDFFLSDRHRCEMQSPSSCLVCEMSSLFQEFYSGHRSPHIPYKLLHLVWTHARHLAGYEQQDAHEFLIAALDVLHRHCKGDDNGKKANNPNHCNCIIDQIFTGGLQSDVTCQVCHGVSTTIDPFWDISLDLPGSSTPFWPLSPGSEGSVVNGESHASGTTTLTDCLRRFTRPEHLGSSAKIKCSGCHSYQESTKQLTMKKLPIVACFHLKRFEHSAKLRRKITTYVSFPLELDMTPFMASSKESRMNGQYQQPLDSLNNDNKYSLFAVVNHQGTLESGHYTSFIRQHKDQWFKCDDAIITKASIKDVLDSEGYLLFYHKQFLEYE

[3] = target: EZH2 (endogenous, mouse tumor cells) (mouse (endogenous in RM1, MC38 and 4T1)) (UniProt Q61188); assay: as above
[4] = target: Flag-tagged EZH2 (UniProt Q15910); assay: co-IP; transiently transfected HEK-293T cells (Myc-USP22 or its mutants with FLAG-EZH2), immunoblot

Q: With “EZH2 (endogenous, mouse tumor cells) (from UniProt Q61188 1-746) (enzyme)” as the molecule, how does the binding [1] read?
A: binds

Q: And the binding [2]?
A: binds

B1: USP22 (endogenous, mouse tumor cells) (enzyme, UniProt Q5DU02 1-525)
chain: T2 sequence
Q: Which binding [3] does the source give for B1 here?
A: binds

B2: Myc-tagged USP22 (enzyme, UniProt Q9UPT9 1-525)
chain: T1 sequence
Q: With B2 as the molecule, how does the binding [4] read?
A: binds

B3: Myc-USP22 C185A (catalytically inactive) (enzyme, UniProt Q9UPT9 1-525)
chain: T1 sequence with C185A
Q: For B3, which binding [4] is on record?
A: binds
